PubChem BioAssay AID1347076 (National Center for Advancing Translational Sciences (NCATS), 2019)
Out of some 400,000 compounds screened, about 13,000 (3.2%) were called active. Inconclusive results, whose numbers are uncertain, are shown with a selection of clear calls. The call rests on the fitted dose curve; in most records, active means well fitted cell-killing curve with a large enough effect; inconclusive means small, poorly fitted or top-dose-only effect, or effect the other way; inactive means flat fitted curve, though single readings scatter. A potency beside an inconclusive call is a rough fit, not a confirmed value.

test: qHTS assay for MDR1-selective chemotherapeutics: Primary screen using the drug-selected MDR subline cells KB-V1; details: KB-V1 MDR cells viability, CellTiter-Glo, 72 h; activity change, negative = cytotoxicity: at 46.1 µM (top of the series); further: nearly all actives have a fitted effect of over 60% in size
Outline: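 KB-V1 MDR subline cells in DMEM (phenol-red free, 10% FBS) exposed to compounds in qHTS concentration series for 72 h at 37 degrees C. Viability read by CellTiter-Glo luminescence; concentration-effect curves fitted after normalization and correction.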
On the % scale 0 is the no-effect control and ±100 the full control effect; potency means the concentration at half of the fitted maximal effect.

Structure (SMILES) | Potency | activity change, negative = cytotoxicity
Cc1ccc(Cn2c(=O)n(-c3ccc(C)c(C)c3)c(=O)c3c(C)c(C)sc32)cc1 | inconclusive: 16.4 µM [cytotoxic, partial curve] | –
Cc1noc(C)c1COc1cccc(C(=O)OCCOc2ccc(F)cc2)c1 | inconclusive: 18.4 µM [cytotoxic, single point] | –
CCOc1ccc(NC(=O)Cn2cc(C(=O)c3ccccc3)c(=O)c3cc4c(cc32)OCO4)cc1 | – | inactive: 0%
NC(=O)CSc1nnc(CSc2ncccn2)n1-c1ccccc1 | – | inactive: 1.56%
O=c1c2ccccc2c(-c2ccc(Cl)cc2)nn1-c1ccccc1 | inconclusive: 8.2 µM [cytotoxic, partial curve, poor fit] | –
Clc1ccc(/C=C/c2ccnc3ccccc23)cc1 | – | inactive: -6.61%
Cc1ccc(NCCC(=O)c2cccs2)cc1 | – | inactive: -1.66%
CCOC(=O)C(=CNc1ccc(NC2=NCC(C)S2)cc1)C(=O)OCC (centres undefined) | – | inactive: -84.1%
Clc1ccc(CNc2ccc(CNc3ncn[nH]3)cc2)cc1 | active: 18.4 µM | –
COc1cc(Cl)c(NC(=O)CN(C)S(=O)(=O)c2ccc3c(c2)CCCC(=O)N3)c(OC)c1 | inconclusive: 20.6 µM [cytotoxic, partial curve, poor fit] | –
O=C(NN(CC(O)COc1ccccc1)CC(O)COc1ccccc1)c1ccccc1 (centres undefined) | – | inconclusive: -32.7% [cytotoxic]
CCN(CC(=O)Nc1ccc(OC)cc1)C(=O)c1cc2c(s1)CCCCC2 | inconclusive: 23.1 µM [cytotoxic, partial curve, poor fit] | –
O=C(O)c1sccc1S(=O)(=O)N1CCN(c2ccc(C(F)(F)F)cn2)CC1 | inconclusive: 29.1 µM [rising, single point] | –
COc1cc(C(=O)Nc2ccccc2C(=O)Nc2ccccn2)cc(OC)c1OC | active: 6.51 µM | –
Cc1ccccc1-c1nc(CS(=O)(=O)CC(=O)NCc2ccc(F)cc2)c(C)o1 | inconclusive: 29.1 µM [cytotoxic, single point] | –
O=C(NCc1ccc(F)c(F)c1)C1CCC(=O)N(CC2CCCCC2)C1 (centres undefined) | – | inactive: -2.62%
CC(=O)Nc1ccc2nc(SCC(=O)NCCOc3ccccc3)sc2c1 | inconclusive: 23.1 µM [cytotoxic, single point] | –
Cc1ccc(-c2nnc(Nc3cccc(O)c3)c3ccccc23)cc1S(=O)(=O)N1CCCCC1 | – | inactive: -8.14%
O=C(NC(C(=O)N/N=C/c1cccnc1)c1n[nH]c(=O)c2ccccc12)c1ccccc1 (centres undefined) | inconclusive: 23.1 µM [rising, single point] | –
Cc1[nH]n(-c2ccccc2)c(=O)c1/C=N/NC(=O)COc1ccccc1[N+](=O)[O-] | inconclusive: 18.4 µM [cytotoxic, single point] | –
O=C(Nc1nc2ccccc2[nH]1)c1cccc(Br)c1 | inconclusive: 14.6 µM [cytotoxic, partial curve] | –
Cc1ccc(C(=O)Nc2ccc(N3CCOCC3)nc2)cc1 | inconclusive: 20.6 µM [cytotoxic, single point] | –
Cc1ccccc1OCCC(=O)NNC(=O)c1ccccc1F | inconclusive: 18.4 µM [rising, partial curve, poor fit] | –

Full records, looked up by structure.
`CC(=O)Nc1ccc2nc(SCC(=O)NCCOc3ccccc3)sc2c1` as listed: Potency: inconclusive: 23.1 µM [cytotoxic, single point]
`O=C(Nc1nc2ccccc2[nH]1)c1cccc(Br)c1` as listed: Potency: inconclusive: 14.6 µM [cytotoxic, partial curve]

(list continues)

Structure (SMILES) | Potency | activity change, negative = cytotoxicity
CC(C)NC(=O)N(C)C[C@@H]1OCc2cn(nn2)CCCC(=O)N([C@H](C)CO)C[C@H]1C | inconclusive: 0.291 µM [rising, full curve] | –
ON=C1C2CC=C(c3ccccc3)C1CCC2 (centres undefined) | inconclusive: 16.4 µM [cytotoxic, partial curve] | –
O=C1COc2cc(S(=O)(=O)CCC(=O)N3CCN(c4ccccc4)CC3)c(Cl)cc2N1 | – | inactive: -21%
CCNC(=O)c1cccc(NC(=O)CN2C(=O)NC3(CCCCC3)C2=O)c1 | inconclusive: 23.1 µM [rising, single point] | –
CCCCCn1c(CNC(=O)c2ccc(F)cc2)nc2ccccc21 | inconclusive: 32.6 µM [cytotoxic, single point] | –
O=C(Cn1nnc2c(cnn2-c2ccccc2)c1=O)N1CCN(c2ccccc2F)CC1 | inconclusive: 16.4 µM [cytotoxic, single point] | –
COC(=O)/C=C/C(=O)Nc1cccc(C(F)(F)F)c1 | – | inactive: -0.845%
COC(=O)c1ccc(CSc2nc3c([nH]c4ccccc43)c(=O)n2-c2cc(C)cc(C)c2)o1 | inconclusive: 13 µM [cytotoxic, partial curve] | –
Cc1cccc(-c2onc3ccc(C4(C)OCCO4)cc23)c1 | – | inactive: 6.92%
O=C(c1cc(-c2ccc(F)cc2)on1)N1CCCCCC1 | inconclusive: 9.2 µM [cytotoxic, partial curve] | –
CCCCCCCCCc1nc2sc3c(c2c(=O)n1NC(=O)c1ccccc1[N+](=O)[O-])CC(C)(C)OC3 | inconclusive: 29.1 µM [cytotoxic, single point] | –
CSc1cccc(NC(=O)C2CCCN(S(=O)(=O)c3ccc(F)cc3)C2)c1 (centres undefined) | inconclusive: 29.1 µM [cytotoxic, single point] | –
C=CCC1(CC=C)CCCN1C(=O)C1CCC(=O)N(Cc2ccc(Cl)cc2)C1 (centres undefined) | inconclusive: 1.64 µM [cytotoxic, full curve] | –
COc1ccc(OC)c(CCNC(=O)C(C)n2c(C)c3cnn(-c4ccccc4)c(=O)c3c2C)c1 (centres undefined) | inconclusive: 0.58 µM [rising, full curve, poor fit] | –
COc1ccccc1CNS(=O)(=O)c1ccc(N2CCCCS2(=O)=O)cc1 | – | inactive: -13.3%
CC(C)NC(=O)NC(=O)COC(=O)C1CCCN1C(=O)c1cccs1 (centres undefined) | inconclusive: 29.1 µM [rising, single point] | –
CCOC(=O)c1c(C)[nH]c(C(=O)COC(=O)c2ccncc2)c1C | active: 7.31 µM | –
COC(=O)c1c(O)c2ccccc2[nH]c1=O | – | inactive: -14.8%
O=C(COc1ccccc1Cl)NCc1nc(-c2ccccc2)no1 | inconclusive: 11.6 µM [cytotoxic, single point] | –
CCc1cc(C(=O)N2CCN(C(=O)c3ccccc3)CC2)sc1C | inconclusive: 7.31 µM [cytotoxic, partial curve] | –
CC(C)(C)C(=O)N1CCN(c2ccc(Cl)cc2[N+](=O)[O-])CC1 | inconclusive: 29.1 µM [cytotoxic, single point] | –
COCCCNCCCOc1ccc(C)cc1Br | inconclusive: 9.2 µM [cytotoxic, partial curve, poor fit] | –
CCOc1cc(CNc2ncc(-c3ccc(OC)cc3)n2C)ccc1O | inconclusive: 18.4 µM [cytotoxic, single point] | –

Of the compounds above, two contain bromine:
Structure (SMILES) | Potency | activity change, negative = cytotoxicity
O=C(Nc1nc2ccccc2[nH]1)c1cccc(Br)c1 | inconclusive: 14.6 µM [cytotoxic, partial curve] | –
COCCCNCCCOc1ccc(C)cc1Br | inconclusive: 9.2 µM [cytotoxic, partial curve, poor fit] | –

(cont.)

Structure (SMILES) | Potency | activity change, negative = cytotoxicity
COc1ccc(N2CCN(C(CNC(=O)C(=O)NCc3ccc4c(c3)OCO4)c3ccco3)CC2)cc1 (centres undefined) | inconclusive: 2.59 µM [cytotoxic, full curve] | –
Cc1ccccc1N(CC(=O)NC1CCCCC1)C(=O)CCCC(=O)Nc1ccccn1 | inconclusive: 11.6 µM [cytotoxic, partial curve] | –
Cc1cc(C)cc(-n2ccnc(NCc3ccc(F)cc3)c2=O)c1 | – | inactive: -13.5%
CC(=O)Nc1ccc(C(C#N)=Cc2ccc(N(C)CCC#N)cc2)cc1 | inconclusive: 14.6 µM [cytotoxic, single point] | –
Cc1ccn2c(-c3csc(NCc4ccco4)n3)c(C)nc2c1 | – | inactive: 0%
COc1ccc(Cl)cc1C(=O)Nc1c2c(nn1-c1ccc(Cl)cc1)CS(=O)(=O)C2 | inconclusive: 0.259 µM [rising, full curve] | –
O=C(N/N=C/c1c[nH]c2ccccc12)c1[nH]c2ccc(Br)cc2c1-c1ccccc1 | inconclusive: 2.91 µM [cytotoxic, partial curve, poor fit] | –
Cc1nn(Cc2ccc(Cl)c(Cl)c2)c(C)c1NC(=O)c1cc(-c2ccco2)on1 | active: 5.17 µM | –
O=C(NC(Cc1ccccc1)C(=O)O)/C(=C\c1ccco1)NC(=O)c1ccccc1Br (centres undefined) | – | inactive: -4.25%
CC(=O)Nc1ccc(S(=O)(=O)NCCC(=O)Nc2ccc(C)cn2)cc1 | – | inactive: -5.9%
O=C(O)CCC(=O)c1c[nH]c2ccccc12 | – | inconclusive: -29%
OCc1ccc2c(c1)c(-c1ccc3c(c1)OCCO3)c(-c1ccccc1)n2-c1ccccc1 | inconclusive: 29.1 µM [cytotoxic, single point] | –
Cc1[nH]n2c(=O)cc(-c3ccc([N+](=O)[O-])cc3)nc2c1-c1ccccc1 | – | inactive: 0%
CCCN(CCC)S(=O)(=O)c1cc(Br)cc2c1N(C(=O)CC)CC2 | inconclusive: 8.2 µM [cytotoxic, partial curve] | –
COc1ccc(S(=O)(=O)NCCc2sc(-c3cccc(C)c3)nc2C)cc1 | inconclusive: 13 µM [cytotoxic, partial curve] | –
CCOc1cc(CNc2cccc3[nH]c(C)nc23)ccc1OC | inconclusive: 20.6 µM [cytotoxic, single point] | –
O=C(CNC(=S)N(CCCN1CCOCC1)Cc1cccs1)NCCN1CCOCC1 | inconclusive: 29.1 µM [rising, single point] | –
CN(CC(=O)N1CCN(Cc2ccccc2)CC1)S(=O)(=O)c1ccc(F)cc1 | inconclusive: 16.4 µM [cytotoxic, partial curve] | –
CCOC(=O)c1c(NC(=O)C(=O)N/N=C/c2ccccc2O)sc2c1CCCCC2 | active: 3.66 µM | –
CCOC(=O)c1c(C)n(OCc2ccccc2)c2ccc3c(no[n+]3[O-])c12 | inconclusive: 4.61 µM [cytotoxic, full curve] | –
CCOC(=O)c1ccc(NC(=O)CCc2c(C)nc3c(c(C)nn3C(C)(C)C)c2C)cc1 | inconclusive: 20.6 µM [cytotoxic, single point] | –
C=CCNC(=O)CCCc1ccccc1 | – | inconclusive: 30.7%
CC(C)(C)CC(C)(C)NCC(O)COc1ccc2c(c1)CCC2 (centres undefined) | inconclusive: 25.9 µM [cytotoxic, partial curve, poor fit] | –
